Experimental data taken from the supplement of paper PMC12823440, “Inhibitors supercharge kinase turnover through native proteolytic circuits” (Nature, 2025).
Where a name gives a salt, the structure may show the parent alone. The list shows a part of the results. The calls rarely recur for the same compound in another form.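 Kinases, fused to nanoluciferase, were expressed in K562 cells; luminescence was measured every 4 h from 2 to 18 h as percent of control (DMSO = 100%, positive control = 0%). A time point is decreased if signal falls significantly (2 sigma). Hits were called by the authors by a rule that is not shown; the count of time points alone does not decide it.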

Amino acid sequences for entries named in this document (tags omitted). A change or cut given only in a name is not applied to a line headed by its entry.
UniProt P29317, whole entry: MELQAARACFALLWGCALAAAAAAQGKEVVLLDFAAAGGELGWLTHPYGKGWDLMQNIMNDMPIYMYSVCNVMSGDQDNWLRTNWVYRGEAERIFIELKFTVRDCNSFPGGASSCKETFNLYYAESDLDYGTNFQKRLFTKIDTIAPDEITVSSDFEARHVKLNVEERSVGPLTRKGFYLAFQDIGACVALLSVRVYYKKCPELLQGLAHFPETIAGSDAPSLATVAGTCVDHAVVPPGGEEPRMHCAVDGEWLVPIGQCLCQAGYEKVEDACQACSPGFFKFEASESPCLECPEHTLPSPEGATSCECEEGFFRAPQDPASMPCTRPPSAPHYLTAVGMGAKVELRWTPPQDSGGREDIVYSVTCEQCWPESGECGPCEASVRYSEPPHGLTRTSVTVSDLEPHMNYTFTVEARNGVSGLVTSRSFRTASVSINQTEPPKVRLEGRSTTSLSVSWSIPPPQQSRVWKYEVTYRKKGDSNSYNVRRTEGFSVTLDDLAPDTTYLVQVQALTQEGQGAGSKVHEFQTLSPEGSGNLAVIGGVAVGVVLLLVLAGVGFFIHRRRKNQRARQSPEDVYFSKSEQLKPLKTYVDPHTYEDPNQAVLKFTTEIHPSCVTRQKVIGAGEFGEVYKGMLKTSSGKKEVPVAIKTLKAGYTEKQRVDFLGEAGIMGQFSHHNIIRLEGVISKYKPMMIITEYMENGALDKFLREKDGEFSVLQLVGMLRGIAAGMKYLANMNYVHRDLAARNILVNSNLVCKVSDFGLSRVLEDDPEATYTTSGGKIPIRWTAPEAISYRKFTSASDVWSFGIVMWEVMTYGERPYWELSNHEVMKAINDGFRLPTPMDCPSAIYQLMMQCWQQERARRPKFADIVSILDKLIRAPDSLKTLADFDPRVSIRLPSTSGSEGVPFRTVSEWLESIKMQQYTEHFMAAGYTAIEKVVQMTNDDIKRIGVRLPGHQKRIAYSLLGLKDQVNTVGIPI
UniProt P21860, whole entry: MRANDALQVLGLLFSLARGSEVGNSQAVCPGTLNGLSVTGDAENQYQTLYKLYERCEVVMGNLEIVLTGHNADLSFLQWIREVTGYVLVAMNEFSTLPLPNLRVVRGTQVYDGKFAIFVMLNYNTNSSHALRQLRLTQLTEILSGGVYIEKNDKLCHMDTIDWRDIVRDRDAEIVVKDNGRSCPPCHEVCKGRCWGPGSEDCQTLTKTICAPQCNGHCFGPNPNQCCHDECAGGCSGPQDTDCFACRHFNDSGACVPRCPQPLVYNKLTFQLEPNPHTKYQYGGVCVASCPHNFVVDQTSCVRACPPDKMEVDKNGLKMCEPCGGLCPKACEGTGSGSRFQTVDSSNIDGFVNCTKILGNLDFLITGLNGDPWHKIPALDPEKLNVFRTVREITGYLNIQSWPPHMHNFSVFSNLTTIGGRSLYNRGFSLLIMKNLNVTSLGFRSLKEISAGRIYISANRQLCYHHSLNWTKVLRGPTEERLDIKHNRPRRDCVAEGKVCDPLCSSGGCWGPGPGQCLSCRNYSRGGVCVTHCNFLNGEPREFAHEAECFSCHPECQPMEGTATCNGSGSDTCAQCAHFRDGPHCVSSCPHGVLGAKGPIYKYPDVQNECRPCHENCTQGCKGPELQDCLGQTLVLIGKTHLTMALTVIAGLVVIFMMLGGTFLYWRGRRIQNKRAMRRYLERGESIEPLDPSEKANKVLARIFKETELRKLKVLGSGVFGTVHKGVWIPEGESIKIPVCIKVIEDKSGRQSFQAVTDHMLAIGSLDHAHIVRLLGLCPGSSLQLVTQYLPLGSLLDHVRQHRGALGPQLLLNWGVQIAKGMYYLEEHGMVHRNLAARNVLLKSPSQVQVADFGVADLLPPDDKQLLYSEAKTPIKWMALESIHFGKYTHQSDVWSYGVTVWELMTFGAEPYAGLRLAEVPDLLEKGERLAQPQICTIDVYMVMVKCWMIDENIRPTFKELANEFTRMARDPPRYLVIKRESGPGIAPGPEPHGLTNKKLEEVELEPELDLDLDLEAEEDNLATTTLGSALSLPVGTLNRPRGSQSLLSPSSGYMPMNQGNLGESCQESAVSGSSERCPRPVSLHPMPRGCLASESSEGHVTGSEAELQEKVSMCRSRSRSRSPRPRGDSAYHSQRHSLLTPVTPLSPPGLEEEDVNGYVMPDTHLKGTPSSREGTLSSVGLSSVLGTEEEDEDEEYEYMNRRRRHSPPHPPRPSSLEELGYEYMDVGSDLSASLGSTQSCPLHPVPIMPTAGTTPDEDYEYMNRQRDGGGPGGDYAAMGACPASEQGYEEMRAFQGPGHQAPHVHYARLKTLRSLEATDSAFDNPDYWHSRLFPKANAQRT
UniProt O75460: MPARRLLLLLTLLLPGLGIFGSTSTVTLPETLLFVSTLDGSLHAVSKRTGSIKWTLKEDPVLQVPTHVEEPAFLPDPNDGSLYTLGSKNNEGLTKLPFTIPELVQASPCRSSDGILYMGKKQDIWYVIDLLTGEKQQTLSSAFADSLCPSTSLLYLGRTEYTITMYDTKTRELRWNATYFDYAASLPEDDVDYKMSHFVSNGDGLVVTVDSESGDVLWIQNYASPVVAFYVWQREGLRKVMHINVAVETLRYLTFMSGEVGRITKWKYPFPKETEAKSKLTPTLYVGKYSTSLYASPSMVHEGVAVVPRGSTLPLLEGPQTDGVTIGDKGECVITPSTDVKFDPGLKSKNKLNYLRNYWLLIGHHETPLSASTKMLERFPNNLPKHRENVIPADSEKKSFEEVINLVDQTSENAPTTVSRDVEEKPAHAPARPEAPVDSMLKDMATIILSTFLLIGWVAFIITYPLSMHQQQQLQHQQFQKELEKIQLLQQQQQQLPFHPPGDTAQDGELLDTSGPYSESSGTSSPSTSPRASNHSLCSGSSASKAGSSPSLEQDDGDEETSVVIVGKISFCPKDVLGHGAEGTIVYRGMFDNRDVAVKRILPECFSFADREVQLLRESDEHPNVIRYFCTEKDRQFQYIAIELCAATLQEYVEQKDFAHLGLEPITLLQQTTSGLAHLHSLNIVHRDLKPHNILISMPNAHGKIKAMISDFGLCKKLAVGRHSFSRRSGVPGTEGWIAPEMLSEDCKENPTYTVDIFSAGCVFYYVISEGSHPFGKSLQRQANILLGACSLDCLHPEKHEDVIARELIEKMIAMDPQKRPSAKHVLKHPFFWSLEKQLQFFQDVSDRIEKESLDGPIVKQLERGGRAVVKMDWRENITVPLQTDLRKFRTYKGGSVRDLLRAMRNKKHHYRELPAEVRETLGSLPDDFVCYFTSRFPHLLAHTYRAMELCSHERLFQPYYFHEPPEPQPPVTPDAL
UniProt P36888, whole entry: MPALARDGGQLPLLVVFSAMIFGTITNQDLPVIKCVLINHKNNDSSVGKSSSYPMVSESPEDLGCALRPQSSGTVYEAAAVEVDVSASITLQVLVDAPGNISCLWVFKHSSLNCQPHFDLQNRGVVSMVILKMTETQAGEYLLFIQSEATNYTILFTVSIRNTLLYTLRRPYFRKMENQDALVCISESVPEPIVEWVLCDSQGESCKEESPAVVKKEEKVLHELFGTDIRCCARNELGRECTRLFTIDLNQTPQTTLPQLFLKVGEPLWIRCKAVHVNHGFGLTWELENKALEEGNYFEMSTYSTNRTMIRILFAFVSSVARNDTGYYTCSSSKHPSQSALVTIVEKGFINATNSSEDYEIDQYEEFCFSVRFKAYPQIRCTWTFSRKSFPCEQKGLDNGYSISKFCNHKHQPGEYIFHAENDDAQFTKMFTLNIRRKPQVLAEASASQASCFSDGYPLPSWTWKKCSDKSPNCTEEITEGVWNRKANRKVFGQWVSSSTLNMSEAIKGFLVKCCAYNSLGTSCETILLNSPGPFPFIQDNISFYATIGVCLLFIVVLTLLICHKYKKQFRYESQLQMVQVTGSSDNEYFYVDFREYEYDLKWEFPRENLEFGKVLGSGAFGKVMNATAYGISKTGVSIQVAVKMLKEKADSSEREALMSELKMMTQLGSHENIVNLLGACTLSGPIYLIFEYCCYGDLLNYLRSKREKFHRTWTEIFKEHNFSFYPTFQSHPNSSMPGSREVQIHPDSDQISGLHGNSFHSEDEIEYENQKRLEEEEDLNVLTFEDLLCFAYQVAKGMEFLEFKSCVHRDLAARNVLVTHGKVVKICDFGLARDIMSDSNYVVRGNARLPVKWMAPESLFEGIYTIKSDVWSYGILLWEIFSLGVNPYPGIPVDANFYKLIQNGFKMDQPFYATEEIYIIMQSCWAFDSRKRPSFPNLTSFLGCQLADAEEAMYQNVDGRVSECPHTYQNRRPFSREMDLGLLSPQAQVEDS
UniProt P49840: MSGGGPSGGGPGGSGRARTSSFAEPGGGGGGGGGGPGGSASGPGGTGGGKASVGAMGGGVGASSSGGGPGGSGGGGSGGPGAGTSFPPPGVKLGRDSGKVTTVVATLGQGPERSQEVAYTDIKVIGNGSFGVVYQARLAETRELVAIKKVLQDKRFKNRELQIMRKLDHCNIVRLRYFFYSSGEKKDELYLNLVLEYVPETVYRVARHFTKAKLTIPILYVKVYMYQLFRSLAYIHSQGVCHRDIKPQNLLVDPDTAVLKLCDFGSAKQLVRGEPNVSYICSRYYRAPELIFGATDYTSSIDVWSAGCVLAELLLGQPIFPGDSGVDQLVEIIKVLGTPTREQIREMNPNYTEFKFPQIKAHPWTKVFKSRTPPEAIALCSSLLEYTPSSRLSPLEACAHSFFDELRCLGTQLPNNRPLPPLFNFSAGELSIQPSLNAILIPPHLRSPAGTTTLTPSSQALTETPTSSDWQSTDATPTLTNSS
UniProt Q9Y616: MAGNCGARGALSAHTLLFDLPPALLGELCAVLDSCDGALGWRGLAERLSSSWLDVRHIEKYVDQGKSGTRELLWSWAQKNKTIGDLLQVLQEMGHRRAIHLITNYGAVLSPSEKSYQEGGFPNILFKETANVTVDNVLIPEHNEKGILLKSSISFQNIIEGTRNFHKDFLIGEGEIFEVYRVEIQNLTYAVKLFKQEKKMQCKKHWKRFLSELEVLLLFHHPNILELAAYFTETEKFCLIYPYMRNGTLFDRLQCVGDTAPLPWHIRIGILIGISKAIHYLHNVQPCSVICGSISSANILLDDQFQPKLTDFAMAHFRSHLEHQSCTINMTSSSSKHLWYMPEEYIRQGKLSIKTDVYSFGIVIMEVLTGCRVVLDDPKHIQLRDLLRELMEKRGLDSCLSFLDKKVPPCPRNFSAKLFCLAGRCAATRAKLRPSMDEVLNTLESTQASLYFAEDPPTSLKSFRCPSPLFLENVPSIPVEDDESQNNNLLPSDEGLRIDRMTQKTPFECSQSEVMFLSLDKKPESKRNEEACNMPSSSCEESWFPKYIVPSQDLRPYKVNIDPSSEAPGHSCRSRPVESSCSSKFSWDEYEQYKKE
UniProt P06239: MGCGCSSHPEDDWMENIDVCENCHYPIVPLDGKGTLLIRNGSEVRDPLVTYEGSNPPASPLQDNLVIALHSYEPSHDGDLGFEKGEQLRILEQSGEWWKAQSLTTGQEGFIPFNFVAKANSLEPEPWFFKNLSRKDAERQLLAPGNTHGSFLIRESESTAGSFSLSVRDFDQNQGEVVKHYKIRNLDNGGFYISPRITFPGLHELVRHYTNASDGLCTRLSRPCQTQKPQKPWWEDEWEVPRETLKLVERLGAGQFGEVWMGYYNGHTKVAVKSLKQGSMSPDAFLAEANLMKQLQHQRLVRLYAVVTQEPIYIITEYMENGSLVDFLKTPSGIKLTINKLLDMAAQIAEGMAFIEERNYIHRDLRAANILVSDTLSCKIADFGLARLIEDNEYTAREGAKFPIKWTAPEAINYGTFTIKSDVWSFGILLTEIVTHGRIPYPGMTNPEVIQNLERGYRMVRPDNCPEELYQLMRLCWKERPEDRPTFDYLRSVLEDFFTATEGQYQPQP
UniProt P53671: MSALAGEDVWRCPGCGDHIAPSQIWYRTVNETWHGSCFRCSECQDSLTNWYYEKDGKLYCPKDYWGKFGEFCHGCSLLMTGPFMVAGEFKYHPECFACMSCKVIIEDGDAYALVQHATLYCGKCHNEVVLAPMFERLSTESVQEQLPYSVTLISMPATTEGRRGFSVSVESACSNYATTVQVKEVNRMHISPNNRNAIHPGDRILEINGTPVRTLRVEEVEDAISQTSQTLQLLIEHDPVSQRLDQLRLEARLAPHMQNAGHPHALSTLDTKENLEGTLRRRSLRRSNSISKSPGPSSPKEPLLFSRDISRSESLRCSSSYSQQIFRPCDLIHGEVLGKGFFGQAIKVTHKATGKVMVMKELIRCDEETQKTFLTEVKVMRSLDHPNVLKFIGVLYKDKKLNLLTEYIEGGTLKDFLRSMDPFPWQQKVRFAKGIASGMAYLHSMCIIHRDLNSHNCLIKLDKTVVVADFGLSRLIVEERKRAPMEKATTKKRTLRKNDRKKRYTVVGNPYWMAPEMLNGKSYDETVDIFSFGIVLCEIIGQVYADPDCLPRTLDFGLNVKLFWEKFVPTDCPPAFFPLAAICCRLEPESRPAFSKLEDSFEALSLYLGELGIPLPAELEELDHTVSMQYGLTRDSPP

Assays:
Test in all cases: number of time points (of 5) at which kinase-Nluc abundance scored as decreased, DMSO-normalised (count); higher = more persistent destabilization
Conditions in all cases: K562; 2-18 h
EGFR_L861Q = EGFR_L861Q (UniProt P00533)
EGFR_T790M = EGFR_T790M (UniProt P00533)
EPHA2 = EPHA2 (UniProt P29317)
ERBB3 = ERBB3 (UniProt P21860)
[1] = biological target: ERBB4_R711C (clone: ERBB4_mut) (UniProt Q15303)
ERN1 = ERN1 (UniProt O75460)
FGFR1 = FGFR1 (UniProt P11362)
FGFR2 = FGFR2 (UniProt P21802)
FGFR3 = FGFR3 (UniProt P22607)
FGR = FGR (UniProt P09769)
FLT3 = FLT3 (UniProt P36888)
FYN = FYN (UniProt P06241)
GSK3A = GSK3A (UniProt P49840)
HER2 = HER2 (UniProt P04626)
INSRR = INSRR (UniProt P14616)
IRAK3 = IRAK3 (UniProt Q9Y616)
JAK1 = JAK1 (UniProt P23458)
LCK = LCK (UniProt P06239)
LIMK1 = LIMK1 (UniProt P53667)
LIMK2 = LIMK2 (UniProt P53671)

Measured: number of time points

CC[C@@H](Oc1nc(Oc2cc(C)cc(-c3cccc(CN)c3)c2)c(F)cc1F)C(=O)O (10 µM)
0: all assays above

COc1ccc(Cl)c(Nc2nc3ccccc3nc2NS(=O)(=O)c2cccc(NC(=O)C(C)(C)N)c2)c1 [Pilaralisib] (10 µM)
0: all assays above

Cn1ncc(Cl)c1-c1cc(C(=O)N[C@H](CN)Cc2ccc(F)c(F)c2)oc1Cl [Uprosertib] (10 µM)
0: all assays above

C=CC(=O)Nc1cccc(Nc2nc(Nc3ccc(NC4CN(CCF)C4)cc3OC)ncc2C(F)(F)F)c1 (2.5 µM)
1: HER2
0: all other assays above

C[C@]1(O)CCN(c2nc(N3C[C@H](O)[C@@H](O)C3)cc(C(F)(F)F)c2C#N)C1 (10 µM)
0: all assays above

CNC(=O)c1cc(COc2nnc(Nc3ccc(Cl)cc3)c3ccoc23)ccn1 [Telatinib] (10 µM)
0: all assays above

CCN1CCC(n2cc(CNc3cc(Cl)c4ncc(C#N)c(Nc5ccc(F)c(Cl)c5)c4c3)nn2)CC1 [Cot inhibitor-2] (2.5 µM)
0: all assays above

O=C(NCCN1CCCC1)c1cc(-c2ccc(CN3CCOCC3)cc2)nc2ccc(F)cc12 (10 µM)
0: all assays above

Cn1cc(-c2cnn3c(N)c(Br)c([C@@H]4CCCNC4)nc23)cn1 (2.5 µM)
4: FLT3
2: EGFR_L861Q | [1] | FGFR1 | FGFR2 | LIMK1
1: ERBB3 | FGFR3 | FYN | HER2 | INSRR | IRAK3
3: JAK1 | LIMK2
0: all other assays above

Cc1c(-c2c(F)cc(C(N)=O)c3[nH]c4c(c23)CC[C@H](C(C)(C)O)C4)cccc1-n1c(=O)c2cccc(F)c2n(C)c1=O (2.5 µM)
0: all assays above

Cc1cccc(-c2[nH]ncc2-c2ccc(F)c(-c3cnn(CCO)c3)c2)n1 (10 µM)
0: all assays above

CN1C(=O)N[C@H](Cc2c[nH]c3c(Cl)cccc23)C1=O [Necrostatin 2] (10 µM)
0: all assays above

In the list so far, these contain a CF3 group:
C=CC(=O)Nc1cccc(Nc2nc(Nc3ccc(NC4CN(CCF)C4)cc3OC)ncc2C(F)(F)F)c1 (2.5 µM)
1: HER2
0: all other assays above

C[C@]1(O)CCN(c2nc(N3C[C@H](O)[C@@H](O)C3)cc(C(F)(F)F)c2C#N)C1 (10 µM)
0: all assays above

The listing continues:

Nc1ncnc2c1c(-c1cccc(OCc3ccccc3)c1)cn2C1CC(CN2CCC2)C1 (stereo not given) (2.5 µM)
0: all assays above

c1ccc(-c2[nH]ncc2-c2ccnc3ccccc23)nc1 (10 µM)
0: all assays above

COc1ccc(-c2ccc3c(N4CCOCC4)nc(N4C[C@@H](C)O[C@@H](C)C4)nc3n2)cc1CO (2.5 µM)
0: all assays above

Oc1cc(O)c2cc(O)c(-c3cc(O)c(O)c(O)c3)[o+]c2c1 [Delphinidin (chloride)] (10 µM)
3: EGFR_L861Q | FGR
4: ERN1 | LIMK2
2: IRAK3
1: FGFR3 | FYN
0: all other assays above

CN1CCN(c2cnc3c(C4CCN(C(=O)c5ccc(OC(F)(F)F)cc5N)CC4)ncnc3c2)CC1 (10 µM)
0: all assays above

CN1CCN(c2cccc(Nc3nc4c(-c5ccc(S(C)(=O)=O)cc5)cccn4n3)c2)CC1 (10 µM)
0: all assays above

CC#CC(=O)N1CC[C@@H](n2c(=O)n(-c3ccc(Oc4ccccc4)cc3)c3c(N)ncnc32)C1 [Tirabrutinib (hydrochloride)] (10 µM)
0: all assays above

Cc1ccc(C(=O)Nc2ccc(Oc3cc4cnn(C)c4cc3-c3cn[nH]c3)c(F)c2)c(=O)n1-c1ccc(F)cc1 [Merestinib] (2.5 µM)
4: LIMK1
0: all other assays above

Cc1cc(Nc2ncnc3ccc(NC4=NC(C)(C)CO4)cc23)ccc1Oc1ccn2ncnc2c1 [Tucatinib] (2.5 µM)
0: all assays above

COc1ccc(OC)c(C2C(C#N)=C(N)Oc3n[nH]c(-c4ccc5ccccc5c4)c32)c1 (stereo not given) (10 µM)
0: all assays above

CN(C)C(=O)Cn1cc(-c2ccc(-c3cncc4ccccc34)cc2)cn1 (10 µM)
0: all assays above

O=C(NCCN1CCOCC1)c1cc2c(Oc3ccc(NC(=O)C4(C(=O)Nc5ccc(F)cc5)CC4)cc3)ccnc2[nH]1 [Tyrosine kinase inhibitor] (10 µM)
0: all assays above
